Out of some 340,000 compounds screened, about 170 (0.05%) were called active. The shares of active, inactive and inconclusive entries below differ from those in the screen. The call rests on the fitted dose curve; in most records, active means well fitted inhibition curve with a large enough effect in the signal ratio, with a control signal flat (not every such curve was filed as active); inconclusive means small, poorly fitted or top-dose-only effect, or effect the other way, or a change in a side signal; inactive means flat fitted curve, though single readings scatter; the % refers to the signal ratio. A potency beside an inconclusive call is a rough fit, not a confirmed value. Peptide text beside a SMILES is read from it. * marks the point of attachment. OBn = c1ccc(CO*)cc1
experiment: qHTS Assay to Find Inhibitors of Chronic Active B-Cell Receptor Signaling; settings: ABC-DLBCL IkBa-CBG/CBR reporter, luminescence ratio (green luciferase fused to IkBa over red control in TMD8 lymphoma cells), 4 h; activity change, negative = inhibition: at 46.1 µM (top of the series);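 on activity change, negative = inhibition: plate controls were basal doxycycline-induced cells for no effect and cells given 10 µM MG132 for full effect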
How it was run: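 Doxycycline induced both beetle luciferases in TMD8 lymphoma cells; IKK-driven degradation limits the IkappaBalpha-fused green signal, while red luminescence normalises for cell number and nonspecific effects. Compounds tested up to 46 uM, 4 hrs.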
Potency means the concentration at half of the fitted maximal effect.

| Structure (SMILES) | activity change, negative = inhibition | Potency |
| --- | --- | --- |
| COc1ccc(N2CCN(c3nc(Nc4ccc(C)c(F)c4)nc(N4CCCC4)n3)CC2)cc1 | inconclusive: -10.5% |  |
| CC(=O)Nc1ccc(SCC(=O)c2c(N)n(Cc3ccccc3)c(=O)n(C)c2=O)cc1 | inactive |  |
| CC(C)=CCCC(C)CCO (stereo not given) | inactive |  |
| O=C(Nc1cccc(Cl)c1)NC1CCN(C2CCCCC2)C1 (stereo not given) | inactive |  |
| COc1nc(-c2ccccc2)ccc1-c1noc(-c2cccnc2)n1 | inactive |  |
| O=C(NC(=O)c1ccc(Cl)cc1)Nc1ccc(-c2cnco2)cc1 |  | inconclusive: 31.6 µM [falling, single point] |
| COc1ccc2nc(/C=N/NC(=O)CCNC(=O)OC(C)(C)C)ccc2c1 | inactive |  |
| Cc1c(CCO)c(=O)[nH]n1S(=O)(=O)c1ccccc1 | inconclusive: 4.89% |  |
| S=C(NCCc1ccccn1)Nc1ccc(Cl)cc1 | inconclusive: 9.32% |  |
| CCN(CC)c1ccc2cc(-c3nc(-c4ccc(OC)cc4)cs3)c(=O)oc2c1 | inconclusive: -1.18% |  |
| COc1ccc(N/N=C(\C=N\O)C(=O)c2ccc(OC)cc2)cc1 |  | inconclusive: 1.46 µM [falling, partial curve, poor fit] |
| CN1CCN(c2ccc(NC(=O)c3cccs3)cc2)CC1 |  | inconclusive: 20 µM [falling, partial curve, poor fit] |
| CN(C)/C(CN1CCOCC1)=C1\N=C(c2ccccc2)OC1=O | inconclusive: -1.4% |  |
| CC1CCCCN1C(=O)C1CCCN(S(=O)(=O)c2cccc3nsnc23)C1 (stereo not given) | inactive |  |
| Cc1cc(C)n2nc(CC(=O)NNC(=O)COc3ccccc3)nc2n1 | inconclusive: 11% |  |
| Cc1ccc(NC(=O)COc2cccc(Oc3ccccc3)c2)cc1S(=O)(=O)N1CCOCC1 | inconclusive: 0.387% |  |
| CCOc1ncccc1C(=O)NCc1ccc(C)cc1 | inconclusive: 11.5% |  |
| CC(=O)N1CCCc2cc(S(=O)(=O)N3CCC(C)CC3)ccc21 | inactive |  |
| O=C(CCS(=O)(=O)c1ccc(Br)cc1)NCc1cccs1 | inactive |  |
| CCOC(=O)c1c(NC(=O)CSc2ncccn2)sc2c1CCN(Cc1ccccc1)C2 | inconclusive: 5.27% |  |
| CCOc1ccc(-c2cc(C(=O)NN=C3CCN(C)CC3)[nH]n2)cc1 | inconclusive: -0.467% |  |
| COc1cc(-c2cccs2)cc(=O)c2c(C)oc(C)c12 | inconclusive: 14.9% |  |

| Structure (SMILES) | activity change, negative = inhibition | Potency |
| --- | --- | --- |
| CCOC(=O)c1c(C)[nH]c(C)c1C(=O)CSc1nnc(-c2ccc(OC(F)F)cc2)o1 | inconclusive: -21.5% |  |
| Cc1ccc2[nH]c(CCN(C)C)c(CC#N)c2c1 | inconclusive: -14.5% |  |
| Cc1ccc(C(=O)COC(=O)c2cc(Cl)nc3ccccc23)cc1 | inactive |  |
| CCC1Nc2ncnc(N3CCN(c4ccccc4)CC3)c2N(Cc2ccc(OC)cc2)C1=O (stereo not given) | inactive |  |
| O=C(Cc1cccc(F)c1)Nc1ccc2c(c1)CCC2 | inconclusive: 5.3% |  |
| Cc1cccc(OCc2nn[nH]n2)c1C | inactive |  |
| O=C1CCCN1CC(O)CS(=O)(=O)Cc1ccccc1Cl (stereo not given) | inactive |  |
| O=C(CCCN1C(=O)c2ccccc2C1=O)NCCc1ccc(OC(F)F)cc1 |  | inconclusive: 6.31 µM [rising, full curve] |
| Cc1cc(C)cc(NC(=S)NCc2cccs2)c1 | inactive |  |
| Oc1oc(-c2ccco2)nc1C=Nc1ccccc1 | inconclusive: -19.1% |  |
| Cc1nc(SCC(=O)CC(=O)OC(C)C)c(C#N)c(C)c1C |  | inconclusive: 5.17 µM [rising, full curve, poor fit] |
| O=C(NNC1=NS(=O)(=O)c2ccccc21)c1ccc(Cl)cc1 |  | inconclusive: 22.4 µM [falling, partial curve] |
| CNC(=O)CSCc1c(F)cccc1Cl | inconclusive: 1.04% |  |
| Oc1ccc(/C=N/N2CCN(C3c4ccccc4-c4ccccc43)CC2)c(O)c1 | inconclusive: 1.95% |  |
| COc1ccccc1C(C[N+](=O)[O-])c1c(N)n(C)c(=O)n(C)c1=O (stereo not given) |  | inconclusive: 2.51 µM [falling, full curve] |
| O=C(C(=O)N1CCN(c2ccc(F)cc2)CC1)N1CCCCC1 | inconclusive: 7.54% |  |
| CCc1ccc(C2C(C#N)=C(N)C(C#N)(C#N)C3=CCC(C(C)(C)C)CC32)cc1 (stereo not given) | inconclusive: -10.7% |  |
| CCOC(=O)c1[nH]c(C)c(C(=O)OCC(=O)NCc2ccc(OC)c(OC)c2)c1C | inactive |  |
| COc1ccc(-c2nnc(CSc3ncnc4sc5c(c34)CCC5)o2)cc1OC | inactive |  |
| CCC(=O)NC(=S)Nc1cccc(NC(=O)c2ccccc2C)c1 |  | inconclusive: 11.2 µM [falling, partial curve, poor fit] |
| Cc1cc(SCC(=O)N2CCC(c3noc4ccc(F)cc34)CC2)nc2ccccc12 |  | inconclusive: 4.61 µM [falling, single point] |
| O=C(CN(C(=O)CSc1nnc(COc2ccccc2)o1)c1ccc(F)cc1)NC1CCCCC1 |  | inconclusive: 8.2 µM [falling, partial curve] |

| Structure (SMILES) | activity change, negative = inhibition | Potency |
| --- | --- | --- |
| Cc1nn(Cc2ccc(Cl)cc2)c(=O)n1N(C)c1ncc(C(F)(F)F)cc1Cl | inconclusive: -20.7% |  |
| CCOc1ccccc1NC(=O)C1C2CCC(O2)C1C(=O)O (stereo not given) | inconclusive: -1.01% |  |
| COc1ccc2c(c1)nc(SCC(=O)c1ccc(Br)s1)n2C | inconclusive: 16.6% |  |
| COC(=O)C1C2C=CC3(CN(CCc4ccccc4)C(=O)C13)O2 (stereo not given) | inactive |  |
| CCn1cc(S(=O)(=O)CC(=O)NC2CCCCC2)c2ccccc21 |  | inconclusive: 35.5 µM [rising, partial curve, poor fit] |
| O=C(COc1cccc2cccnc12)Nc1ccccc1 | inconclusive: 418% |  |
| CCN(CC)S(=O)(=O)c1cc([N+](=O)[O-])ccc1N1CCC(C(N)=O)CC1 | inconclusive: 5.27% |  |
| CC(=O)NCC(=O)N[C@@H](CC(=O)OCc1ccccc1)C(=O)OCc1ccccc1 (Ac-Gly-Asp(OBn)-OBn) | inconclusive: -92.5% |  |
| Cc1ccc(S(=O)(=O)N2CCC(=O)N(C(COCc3ccc(C(F)(F)F)cc3)Cc3ccccc3)CC2)cc1 (stereo not given) | inconclusive: 5.17% |  |
| Oc1c(C(c2ccc(F)cc2)N2CCOCC2)sc2nc(-c3ccco3)nn12 (stereo not given) | inactive |  |
| O=C(CCl)Nc1cc2[nH]c(=O)[nH]c2cc1Br | inconclusive: -16.6% |  |
| COc1ccccc1-n1c(=O)[nH]c2c(C(N)=O)nc(-c3cccnc3)nc21 | inactive |  |
| CCn1nc(C)cc1C(=O)N(C)C1CCCN(Cc2ccccc2F)C1 (stereo not given) | inactive |  |
| N#CC1=C(N)Oc2cc3ccccc3cc2C1c1cccs1 (stereo not given) |  | inconclusive: 35.5 µM [falling, single point] |
| O=C(Nc1sc2c(c1C(=O)O)CCCC2)c1ccc(F)cc1 | inconclusive: 293% |  |
| CC(=O)NC(CC(=O)NCCN1C(=O)S/C(=C\c2ccccc2)C1=O)c1ccccc1 (stereo not given) | inconclusive: 9.61% |  |
| CCOC(=O)C(=CNc1cccnc1Oc1ccc(C)c2c1CCC2)C(=O)OCC |  | inconclusive: 2.24 µM [falling, partial curve, poor fit] |
| CCCSc1nc(C)cc(C)c1S(C)(=O)=O | inconclusive: 11.2% |  |
| CC(C)c1ccc(NC(=O)COC(=O)CSc2nnc(N)s2)cc1 | inconclusive: 0.694% |  |
| CCc1ccc(OCC(=O)O/N=C(\N)c2ccncc2)cc1 | inconclusive: 6.32% |  |
| COCCN(C(=O)CCl)C(C(=O)NC1CCCCC1)c1ccccc1C (stereo not given) |  | inconclusive: 18.4 µM [falling, partial curve] |
| CC(C)CCN(C(=S)Nc1cccc(F)c1)C1CCN(C(C)C)CC1 | inactive |  |

Pulled by structure from the list above:

| Structure (SMILES) | activity change, negative = inhibition | Potency |
| --- | --- | --- |
| CCOC(=O)C(=CNc1cccnc1Oc1ccc(C)c2c1CCC2)C(=O)OCC |  | inconclusive: 2.24 µM [falling, partial curve, poor fit] |
| CCN(CC)S(=O)(=O)c1cc([N+](=O)[O-])ccc1N1CCC(C(N)=O)CC1 | inconclusive: 5.27% |  |
| COCCN(C(=O)CCl)C(C(=O)NC1CCCCC1)c1ccccc1C (stereo not given) |  | inconclusive: 18.4 µM [falling, partial curve] |

(continued)

| Structure (SMILES) | activity change, negative = inhibition | Potency |
| --- | --- | --- |
| CCOCCCN(C(=O)Nc1ccc(Cl)cc1)C1CCN(C(C)=O)CC1 | inconclusive: 10.9% |  |
| COc1cc(-c2nnc(SCC3(c4ccccc4)OCCO3)o2)cc(OC)c1OC | inconclusive: 7.58% |  |
| CC1=NN(C(N)=S)C(=O)C1N=Nc1c(Cl)cc([N+](=O)[O-])cc1Cl (stereo not given) | inconclusive: 11.2% |  |
| CC1CCN(C(=O)c2ccc3ccccc3c2)CC1 | inactive |  |
| CCOc1cccc(C(=O)Nc2ccc3ccccc3c2)c1 |  | inconclusive: 20 µM [falling, partial curve, poor fit] |
| O=C(NC1CCCCC1)c1cccc2c1C(=O)c1ccc(-c3ccc(OC(F)(F)F)cc3)cc1S2(=O)=O | inactive |  |
| c1ccc(Cc2nnc(N3CCOCC3)c3ccccc23)cc1 | inconclusive: -2.75% |  |
| Cc1ccnc(N2CCC(C(=O)NNC(=O)c3ccccc3C)CC2)n1 |  | inconclusive: 7.94 µM [falling, partial curve] |
| Cc1cc(-c2ccccc2)n2ncc(C#N)c2n1 | inconclusive: 4.66% |  |
| CCc1ccc(CNC(=O)CN2C(=O)COc3ccccc32)cc1 | inconclusive: 4.26% |  |
| COc1ccc(C(=O)NC(=O)N2CCCCC2)cc1 | inconclusive: 13.7% |  |
| COc1cccc(-c2nc(NC(C)C)c3ccccc3n2)c1O | inconclusive: 12.1% |  |
| Cc1cc(C)nc(NC(=O)/C=C/c2cccs2)c1 |  | inconclusive: 31.6 µM [rising, partial curve] |
| CCCCCCCC1CC(CSC(=N)N)OC1=O (stereo not given) | inconclusive: -129% |  |
| Clc1cccc(Cl)c1-c1noc(CN2CCOCC2)n1 | inconclusive: 0.655% |  |
| O=C(NCCOC(=O)c1ccccc1C(=O)OCCNC(=O)c1cccnc1)c1cccnc1 |  | inconclusive: 7.31 µM [falling, partial curve, poor fit] |
| CCc1nc2oc3ccccc3c(=O)c2c(=O)n1-c1ccccc1 |  | inconclusive: 3.66 µM [falling, partial curve, poor fit] |
| O=C(NCCOc1ccccc1F)Nc1ccc(Br)cc1 | inconclusive: 19.3% |  |
| O=S(=O)(NC1CCCCC1)c1cccc(-c2nnc(-c3ccccc3)o2)c1 | inactive |  |
